From patent US20080318268A1, “Devices and Methods for the Selection of Agents with Efficacy Against Biofilm” (priority 2005, published 2008)

Experiments:
[1] = system: Staphylococcus aureus biofilm; assay: Staphylococcus test plate, biofilm forms (Example 9); type: cell-based; conditions: breakpoint concentrations; number in the label is the concentration tested
[2] = system: Staphylococcus aureus (Staph) biofilm; assay: MBEC assay, Staph biofilms (Example 5); type: cell-based; conditions: number of resistant isolates; 12 isolates from device associated infections; exposed 24 hours

SMILES: CCC[C@@H]1C[C@@H](C(=O)N[C@@H]([C@H]2O[C@H](SC)[C@H](O)[C@@H](O)[C@H]2O)[C@H](C)Cl)N(C)C1 [CLIN, clindamycin]
- Number of Staphylococcus aureus isolates resistant to individual antibiotics and antibiotic combinations, Biofilm [1]: 12
- Staph resistance to individual antibiotics and antibiotic combinations, Biofilm [2]: 12
